# Measurements published in publication PMC9723947, “Ornate, large, extremophilic (OLE) RNA forms a kink turn necessary for OapC protein recognition and RNA function”.
# Numbering of substitutions follows the chain as printed. A negative result means that nothing was seen under these conditions. For some assays here: At least one verdict rests on a figure or table, not on a statement of the authors. Protein sequences can lack the tags named with them. For at least one entry, the source does not settle the construct or the ends of the probe. For some assays here: A weaker result is weaker than the reference pair of the same experiment.
# Tests used:
# [1] = molecular target: T1, YbxF/OapC WT (Bacillus halodurans C-125) (UniProt Q9Z9M0); experiment: filter binding; details: Filter binding: 20 mM Tris-HCl pH 7.5, 150 mM NaCl, 10 mM MgCl2, 1 mM TCEP, ~20 C, 15 min, ~10 pM RNA, recombinant protein, residues 1-82, protein details: N-terminal His6 + PreScission (3C) site, label: 5' 32P
# T1 sequence (looked up): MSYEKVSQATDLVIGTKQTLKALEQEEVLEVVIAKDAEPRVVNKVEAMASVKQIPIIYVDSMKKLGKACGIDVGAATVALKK
# [2] = molecular target: T2, YbxF/OapC G15D (Bacillus halodurans C-125) (UniProt Q9Z9M0); experiment: filter binding; details: Filter binding: 20 mM Tris-HCl pH 7.5, 150 mM NaCl, 10 mM MgCl2, 1 mM TCEP, ~20 C, 15 min, ~10 pM RNA; recombinant protein; protein details: N-terminal His6 + PreScission (3C) site; label: 5' 32P; probe letters rebuilt from the primers and the genome
# T2 sequence (looked up, limits assumed): T1 sequence (looked up) with G15D
sequence,measurement,setting,value
GGAUCGAUGAAGCUCCUUGUGAUGGCUUGAGGCGCCCAGCCUUGGGUCAUUGCUGGGAGAAA [OLE83-142],binding result,[1],no binding
GGAUCGAUGAAGCUCCUUGUGAUGGCUUGAGGCGCCCAGCCUUGGGUCAUUGCUGGG [OLE83-137],binding result,[1],no binding
GGUGUCUUUUAGAAUAAGAGUGGUGCAGUAUUCUAGUCAAUCCUCCAUUCUUGAAGGCGGGGCUAAAAAUCCGCCAAAGGGCACAUCGAUGAAGCUCCUUGUGAUGGCUUGAGGCGCCCAGCCUUGGGUCAUUGCUGGGAGAAAAGGUAGUAGGGCGAUCCACAAAGGCAUGUGGGCGAUGACCCUCCUACUGUGGAGGCCUUUUUCUCUGCUGCUUAUGUAUGGACAUAGGGCAAGAGCAAAGGGUAUGAACCUGCGAAGGCAAGCUAGGGAGCUUGUCAGCAGCGUAGCCUGCCUUGAGUGGAGUAGAGGGGAUUAUGGGUUUUGAAGCAAUCCGCUGUCGGCCAACAGCCAUUGCCUCUCUAGUACCAUAUGAAAUCUGCUCUGCAAAAGAGGAUAAGAGAAUGGCAAGGGAUUGCCGAGGAAAACUCCUAGACUGUUCCAUGGGGACAUUUAAAGAGGAUUACAGUGUGGACUAAGUGGUAAUCCAGUCUGGCGUUUGGUGACAGCGCCAAGUUCAACAUAAAGGGAAACCGCCAGCGCGGCGACGCACUGGUGUUGAAUUGGGAAAUCCUACUGGACCUAAGCCACAGAGUUUACUCUUUAAAUGACCACUCUCAUACAUACGCAGUCGGAACG [OLE1-637 (full-length OLE RNA)],binding result,[2],no binding
same,binding result,[1]; probe letters rebuilt from the primers and the genome,binds
GGAACGAUGAAGCUCCCGAAAGGGAGAAAAGGUA [OLE k-turn U84A],binding result,"[1]; little or none at 1 uM protein, binds at higher concentration",binds more weakly
